## Primary screen of a compound library

Amino acid sequences for entries named in this document (tags omitted). Residues count along the entry.
UniProt I6X8D2, whole entry: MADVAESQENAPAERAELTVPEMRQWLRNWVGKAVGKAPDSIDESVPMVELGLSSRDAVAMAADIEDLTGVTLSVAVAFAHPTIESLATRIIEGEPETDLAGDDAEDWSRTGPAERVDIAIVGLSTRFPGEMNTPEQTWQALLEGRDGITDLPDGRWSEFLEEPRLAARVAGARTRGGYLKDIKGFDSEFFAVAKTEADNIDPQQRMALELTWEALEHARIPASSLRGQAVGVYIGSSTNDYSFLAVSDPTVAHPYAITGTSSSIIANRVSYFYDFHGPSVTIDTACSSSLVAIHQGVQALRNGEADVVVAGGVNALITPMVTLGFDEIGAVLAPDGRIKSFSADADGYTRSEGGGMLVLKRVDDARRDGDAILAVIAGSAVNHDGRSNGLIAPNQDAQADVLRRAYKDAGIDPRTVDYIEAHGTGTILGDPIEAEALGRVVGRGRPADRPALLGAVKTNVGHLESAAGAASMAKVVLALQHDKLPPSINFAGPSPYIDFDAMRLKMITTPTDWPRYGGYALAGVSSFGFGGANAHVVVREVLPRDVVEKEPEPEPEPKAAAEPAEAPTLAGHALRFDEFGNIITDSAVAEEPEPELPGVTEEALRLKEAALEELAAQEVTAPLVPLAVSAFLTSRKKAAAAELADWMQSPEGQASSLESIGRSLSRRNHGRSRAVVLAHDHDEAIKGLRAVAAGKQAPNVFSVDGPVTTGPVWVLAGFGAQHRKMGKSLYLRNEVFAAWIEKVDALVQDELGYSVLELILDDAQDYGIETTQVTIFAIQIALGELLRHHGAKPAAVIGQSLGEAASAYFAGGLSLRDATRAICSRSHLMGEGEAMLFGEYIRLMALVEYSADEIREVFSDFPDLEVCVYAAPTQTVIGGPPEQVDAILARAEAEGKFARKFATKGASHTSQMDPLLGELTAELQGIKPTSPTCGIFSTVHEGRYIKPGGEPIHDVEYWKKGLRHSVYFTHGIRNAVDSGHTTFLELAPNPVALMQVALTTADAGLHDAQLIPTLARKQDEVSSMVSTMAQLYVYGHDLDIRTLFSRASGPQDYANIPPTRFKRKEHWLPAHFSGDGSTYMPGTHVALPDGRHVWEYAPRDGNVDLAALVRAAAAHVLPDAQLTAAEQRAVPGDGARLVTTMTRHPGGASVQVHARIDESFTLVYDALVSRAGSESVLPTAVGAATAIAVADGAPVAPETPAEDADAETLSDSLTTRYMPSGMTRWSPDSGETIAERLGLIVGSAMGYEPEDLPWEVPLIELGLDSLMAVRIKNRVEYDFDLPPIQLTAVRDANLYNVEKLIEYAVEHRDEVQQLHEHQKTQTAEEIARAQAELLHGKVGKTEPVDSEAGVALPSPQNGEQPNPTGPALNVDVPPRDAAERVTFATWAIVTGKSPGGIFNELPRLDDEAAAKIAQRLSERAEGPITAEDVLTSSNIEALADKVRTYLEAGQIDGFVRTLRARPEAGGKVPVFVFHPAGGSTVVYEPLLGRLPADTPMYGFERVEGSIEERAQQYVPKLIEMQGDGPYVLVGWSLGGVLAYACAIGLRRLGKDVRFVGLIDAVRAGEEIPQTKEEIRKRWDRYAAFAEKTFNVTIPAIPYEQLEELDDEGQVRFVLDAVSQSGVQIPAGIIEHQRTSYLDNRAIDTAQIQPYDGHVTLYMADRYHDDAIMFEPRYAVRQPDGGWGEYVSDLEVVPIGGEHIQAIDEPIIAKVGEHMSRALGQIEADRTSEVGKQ
UniProt Q8IDJ8, 1-583: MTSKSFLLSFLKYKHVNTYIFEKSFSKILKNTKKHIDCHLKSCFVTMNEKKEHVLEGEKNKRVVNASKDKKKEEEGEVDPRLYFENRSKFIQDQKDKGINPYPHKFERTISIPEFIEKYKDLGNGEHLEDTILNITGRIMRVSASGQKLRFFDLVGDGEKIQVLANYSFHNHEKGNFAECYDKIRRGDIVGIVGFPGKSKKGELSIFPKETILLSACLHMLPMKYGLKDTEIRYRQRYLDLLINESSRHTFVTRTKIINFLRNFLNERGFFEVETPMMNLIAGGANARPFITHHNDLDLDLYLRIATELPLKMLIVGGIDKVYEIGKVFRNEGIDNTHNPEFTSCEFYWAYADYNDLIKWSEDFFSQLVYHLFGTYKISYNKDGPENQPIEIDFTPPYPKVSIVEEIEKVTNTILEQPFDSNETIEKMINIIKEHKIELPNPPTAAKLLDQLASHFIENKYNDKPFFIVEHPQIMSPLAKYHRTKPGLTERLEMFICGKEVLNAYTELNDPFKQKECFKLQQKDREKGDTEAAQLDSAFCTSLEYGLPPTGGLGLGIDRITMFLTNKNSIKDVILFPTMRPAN
UniProt A4I591, 1-473: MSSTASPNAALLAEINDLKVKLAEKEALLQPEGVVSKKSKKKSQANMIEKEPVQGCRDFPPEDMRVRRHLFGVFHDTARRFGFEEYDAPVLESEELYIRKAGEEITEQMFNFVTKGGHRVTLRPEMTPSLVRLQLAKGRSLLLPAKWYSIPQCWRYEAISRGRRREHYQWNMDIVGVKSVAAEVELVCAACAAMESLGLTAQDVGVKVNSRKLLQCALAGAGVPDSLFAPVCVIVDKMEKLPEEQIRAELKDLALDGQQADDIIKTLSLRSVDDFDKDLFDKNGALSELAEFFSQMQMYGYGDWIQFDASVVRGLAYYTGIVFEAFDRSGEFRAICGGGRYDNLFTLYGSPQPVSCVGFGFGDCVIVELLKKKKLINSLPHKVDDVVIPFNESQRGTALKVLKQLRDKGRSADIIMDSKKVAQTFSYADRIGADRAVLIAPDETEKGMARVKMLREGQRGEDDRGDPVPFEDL
UniProt Q4DA54, 1-478: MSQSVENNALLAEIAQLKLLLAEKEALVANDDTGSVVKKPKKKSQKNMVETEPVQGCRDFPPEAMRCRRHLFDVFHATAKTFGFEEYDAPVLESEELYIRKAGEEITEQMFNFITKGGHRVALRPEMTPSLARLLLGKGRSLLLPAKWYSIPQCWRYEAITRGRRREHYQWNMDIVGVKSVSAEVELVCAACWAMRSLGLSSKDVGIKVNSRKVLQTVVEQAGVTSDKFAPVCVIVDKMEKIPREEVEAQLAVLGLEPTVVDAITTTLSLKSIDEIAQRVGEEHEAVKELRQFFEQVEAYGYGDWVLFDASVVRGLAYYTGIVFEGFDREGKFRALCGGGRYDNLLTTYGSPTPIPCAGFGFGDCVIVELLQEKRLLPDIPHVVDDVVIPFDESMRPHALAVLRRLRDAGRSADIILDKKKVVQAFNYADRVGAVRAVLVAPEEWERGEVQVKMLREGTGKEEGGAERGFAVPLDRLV

Data taken from ChEMBL document CHEMBL3988442, “University of Dundee, Small-Polar-MMV Screening Library” (2021).

Pks13 thioesterase: 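Enzyme assay of the thioesterase domain of polyketide synthase 13; the read-out is not stated. Target: Polyketide synthase Pks13, Mycobacterium tuberculosis (UniProt I6X8D2). Tested at 30 µM. The record gives no direction; the compounds picked for IC50 retests had high values, so higher reads as stronger inhibition. About 67,000 compounds were tested under these conditions; 0.46% (about 300) showed 50% or more at least once.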
PfKRS1: 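Enzyme assay of the cytosolic lysyl-tRNA synthetase in 384-well plates, read by luminescence. Target: Lysine-tRNA ligase, Plasmodium falciparum 3D7 (UniProt Q8IDJ8). Concentration: 30 µM. Higher reads as stronger inhibition, judged from the few compounds that gave an IC50. Size under these conditions: about 69,000 compounds, about 49 of them at 50% or above in at least one test.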
LiHisRS: 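Histidine-tRNA ligase, Leishmania infantum (UniProt A4I591). Enzyme assay of histidyl-tRNA synthetase; the read-out is not stated. Compounds at 30 µM. The record gives no direction; compounds that gave an IC50 in retests scored well above the rest, so higher reads as stronger inhibition. The assay is labelled LdHisRS but filed under L. infantum. About 69,000 compounds were tested under these conditions; 0.6% (about 410) showed 50% or more at least once.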
TcHisRS: 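Enzyme assay of histidyl-tRNA synthetase; the read-out is not stated. Target: Histidine-tRNA ligase, Trypanosoma cruzi CL Brener (UniProt Q4DA54). Compounds at 30 µM. The record gives no direction; compounds that gave an IC50 in retests scored well above the rest, so higher reads as stronger inhibition. Size under these conditions: about 69,000 compounds, about 31 of them at 50% or above in at least one test.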

Results are given as percent effect. The record does not define 0% and 100%; most values in the screen are far below 50% and negative numbers occur (in some assays of this library far below -100). Compounds were drawn at random from those tested, without regard to their results. A dash means the value is not listed here; it may have been measured.

Compound,Pks13 thioesterase,PfKRS1,LiHisRS,TcHisRS
Cn1cc(CN2CC[C@H](O)[C@@H](n3ccc(=O)[nH]c3=O)CC2)cn1,-13.25,-1.818,14,11.99
CCn1nc(C)c(CNC(=O)c2nnc3ccccc3n2)c1C,2.973,6.634,8.642,8.482
O[C@@H]1CCN(CC2CCOC2)[C@H]1Cc1ccccc1 (stereo not given in full),-24.5,2.209,13.68,3.681
O=C(CCn1c(C(F)(F)F)cc2cccnc21)NC1CCCC1,6.385,0.7597,10.34,7.605
CC(C)C(C)N(Cc1cnc2ccccc2n1)Cc1ccco1 (stereo not given),1.522,1.362,24.39,15.87
Cc1nc(CN2C[C@@H]3CN(C(=O)NC(C)C)C[C@@H]3C2=O)cs1,-4.539,-0.3483,2.941,6.897
COC(=O)C(NC(=O)COC1CCCCC1)c1ccccc1 (stereo not given),-,5.009,15.08,5.882
CN(CCn1cccn1)S(=O)(=O)c1cccc(F)c1C#N,46.2,6.404,13.16,3.448
O=C(CC1CC1)N1Cc2nccn2CC(CN2CCCC2)C1 (stereo not given),-17.03,-2.972,-17.65,0.9852
Cc1ccc(C(NCC(=O)N2CCNC(=O)C2)c2ccccc2)cc1 (stereo not given),-,0.5228,27.16,1.84
Cc1cc(C)n(C2CN(CC(=O)NC3CCS(=O)(=O)C3)C2)n1 (stereo not given),-21.58,-0.6256,0.8696,-2.817
CN(C)C(=O)c1nc(-c2ccc(S(C)(=O)=O)cc2)c2ccccn12,48.71,0.5836,8.276,5.325
CSCC(C)(O)CNc1ncccc1I (stereo not given),-7.414,0.516,-2.74,11.11
COc1cccc(CN2C[C@H]3CC[C@H]2C3)c1OCCN1CCOCC1,-23.27,1.409,9.804,7.407
Cc1ccc(C(C)NCCc2nccn2Cc2ccccc2)o1 (stereo not given),-9.445,6.164,6.25,-1.724
CCn1cc(CNC(=O)C(C)C)cn1,4.186,8.639,25,2.484
CCOCCn1c(=O)n(Cc2ccc(F)cc2)c2ncc(C(=O)O)cc21,-,-0.2687,11.97,4.865
CNC(=O)c1cccc(CCNc2ccc(C#N)cn2)c1,-25.76,1.842,14.29,5.051
O=C(CCc1nc(-c2cccnc2)no1)NCC1CCN(C2CC2)C1 (stereo not given),-48.98,0.06709,9.326,3.867
Cc1cccc(CN2CCc3ncnc(N4CCOCC4)c3CC2)n1,-4.744,-4.288,-36.19,4.959
CC(C)[C@@H]1CN(c2ccc(F)cn2)C[C@H]1NS(C)(=O)=O,2.551,2.333,0,0
CCOCCCNC(=O)NC(C)c1ccc(-n2cncn2)cc1 (stereo not given),-39.28,-1.773,26.76,7.006
CCCC(=O)NCCc1nc(N(C)C)ncc1-c1ccncc1,7.429,1.196,8.633,2.682
COc1ccc([C@@H]2CN(C(=O)Cc3cccs3)C[C@H]2NC(C)=O)cc1,-29.71,3.452,5.263,-1.093
CCOc1cccc(CCNC(=O)NC2CCc3[nH]ncc3C2)n1 (stereo not given),-19.87,-2.376,-2.083,7.595
O=C(COCC(F)(F)F)Nc1nncs1,-12.86,2.673,9.649,-5.172
CC1=N[C@@]2(CC[C@@H]3CN(C(=O)NCCc4ccccc4)C[C@@H]32)C(=O)N1,-11.26,5.172,13.76,9.244
c1cnc(N2CCc3onc(CN4CCOCC4)c3C2)cn1,10.04,4.72,16.98,8.889
CCNC(=O)[C@@H]1C[C@@H](NC(=O)Cc2ccncc2)CN1Cc1ccsc1,-2.717,2.348,13.33,1.653
CC(C)N1CCCCC1c1cncc(Cl)n1 (stereo not given),-27.74,-1.352,8.696,3.788
CNc1cncc(C2CCCN2Cc2cccc(C)n2)n1 (stereo not given),14.53,5.035,7.246,5.495
CCC(=O)N1CCC2(COCc3cnc(N4CCOCC4)nc32)C1 (stereo not given),-10.33,-0.06717,8,3.922
NS(=O)(=O)CCNC(=O)C1(c2ccccc2)CC1,-3.618,2.618,7.527,4.167
O=C(c1ccccn1)N1C[C@@H]2OCC(=O)N(CC3CCCCC3)[C@@H]2C1,-32.97,11.25,19.44,3.483
CCS(=O)(=O)N1CCC2(CN(c3cccc(C)n3)C2)C1,-33.75,2.581,5.983,1.604
O=C1CN(C(=O)C2CN(c3cccc(Cl)c3)CCO2)CCN1 (stereo not given),4.109,-0.9533,13.04,-3.788
CN(C)C(=O)CC1CC2(CCN(Cc3ccoc3)CC2)c2ccccc21 (stereo not given),5.621,6.284,20.51,6.098
CC(C)Cc1nnc(NCc2ccsc2)o1,-36.52,-1.565,20.83,10.53
COc1ccc2oc(C(C)NC(=O)NCC(C)(C)C(N)=O)c(C)c2c1 (stereo not given),-24.34,1.85,2.564,4.819
CCc1noc(CNc2ccc(C(=O)N3CCCC(C)C3)cc2C)n1 (stereo not given),-8.864,-1.426,2.74,3.817
CCOc1ccnc(N2CCN(C(=O)c3ccoc3C)CC2)n1,-4.898,1.592,10.17,4.571
CC1CCC(NCCCN2CCOCC2)CC1 (stereo not given),-9.53,0.9836,4.762,-4.615
OC(COCc1ccccc1)CN1CCC(c2ccn[nH]2)CC1 (stereo not given),-16.22,-1.289,15.25,2.857
CO[C@@H]1CN(c2ccccc2)S(=O)(=O)[C@@]12CCN(CC1CC1)C2,11.5,1.357,6.122,-2.247

Once more, the final 5:

Compound,Pks13 thioesterase,PfKRS1,LiHisRS,TcHisRS
CCc1noc(CNc2ccc(C(=O)N3CCCC(C)C3)cc2C)n1 (stereo not given),-8.864,-1.426,2.74,3.817
CCOc1ccnc(N2CCN(C(=O)c3ccoc3C)CC2)n1,-4.898,1.592,10.17,4.571
CC1CCC(NCCCN2CCOCC2)CC1 (stereo not given),-9.53,0.9836,4.762,-4.615
OC(COCc1ccccc1)CN1CCC(c2ccn[nH]2)CC1 (stereo not given),-16.22,-1.289,15.25,2.857
CO[C@@H]1CN(c2ccccc2)S(=O)(=O)[C@@]12CCN(CC1CC1)C2,11.5,1.357,6.122,-2.247